At least one peptide structure holds a part that was inferred or is arguable (an end, a ring closure or a residue). Residues, ends and D or L forms follow the SMILES beside them.
Assay: Circular dichroism and thermal denaturation of liver and skin AFPs
Assay type: physicochemical
Description: CD spectra were measured using a Jasco J-600 spectropolarimeter. A water-jacketed (0.1 cm) quartz cell was used. Concentrations of peptides were calculated from UV-absorbance at 230 nm (OD230 =6.1 mM/L peptide-bonds). The concentrations of peptides for CD measurement were between 0.1-0.2 mg/ml in 0.1M NH4 HCO3, pH 8.5. Thermal denaturation of the peptides were measured by varying temperatures from 0-60° C. with a 5° C. step gradient. After CD measurement at 60° C., the samples were cooled to 0° C. and the extent of refolding was determined. The mean residue ellipticity at a given wavelength [q]1 was expressed in degree cm^2 dmol^-1. Fraction helix was calculated as described by Greenfield and Fasman (1969) Biochemistry 8, 4108-4116, employing 222 nm instead of 208 nm: [formula]
The ellipticity [q]222^coil of each peptide in 6.0 M guanidine hydrochloride at 25° C. was assumed to represent 0% helix formation, and the ellipticity for [q]222^helix 100% helix formation was calculated from J. T. Yang et al. (1986) Methods in Enzymology 130, 208-269: [q]^n= [q]^.infin. (1-k/n); where n is the chain length and k is a wavelength-dependent factor (at 222 nm k=2.5 and [q].infin.=-37,400 degree cm^2 dmol^-1).

Structure (SMILES): CC(C)C[C@H](NC(=O)[C@H](C)NC(=O)[C@H](C)NC(=O)[C@H](C)NC(=O)[C@H](C)NC(=O)[C@H](C)NC(=O)[C@H](C)NC(=O)[C@H](CC(=O)O)NC(=O)[C@H](CO)NC(=O)[C@H](C)NC(=O)[C@@H](NC(=O)[C@@H](N)CC(=O)O)[C@@H](C)O)C(=O)N[C@H](C(=O)N[C@@H](C)C(=O)N[C@@H](C)C(=O)N[C@@H](CC(N)=O)C(=O)N[C@@H](C)C(=O)N[C@@H](CCCCN)C(=O)N[C@@H](C)C(=O)N[C@@H](C)C(=O)N[C@@H](C)C(=O)N[C@@H](CCC(=O)O)C(=O)N[C@@H](CC(C)C)C(=O)N[C@H](C(=O)N[C@@H](C)C(=O)N[C@@H](C)C(=O)N[C@@H](CC(N)=O)C(=O)N[C@@H](C)C(=O)N[C@@H](C)C(=O)N[C@@H](C)C(=O)N[C@@H](C)C(=O)N[C@@H](C)C(=O)N[C@@H](C)C(=O)N[C@@H](C)C(=O)N[C@H](C(=O)N[C@@H](C)C(=O)N[C@@H](CCCNC(=N)N)C(N)=O)[C@@H](C)O)[C@@H](C)O)[C@@H](C)O [HPLC-6, reference compound] (H-DTASDAAAAAALTAANAKAAAELTAANAAAAAAATAR-NH2)
- Fraction Helix (0° C., pH 8.5, 0.1M NH4HCO3, calculated from ellipticity at 222 nm): 0.71
- helical content by circular dichroism (at 0° C.): 71%
- [Θ]222 mean residue ellipticity (measured at 0° C., pH 8.5, 0.1M NH4HCO3): -25,240 deg cm^2 dmol^-1
- Tm (temperature at which fraction helix is 0.5) (thermal denaturation 0-60° C., CD): 15.8 °C
